Data from the supplement of paper PMC7877785.
± gives the uncertainty stated by the source. The uncertainty is large for many entries.

Assay: self-splicing fitness, log relative to wild type (ln ratio); higher = more splicing; Tetrahymena group I intron in knt gene, E. coli kanamycin selection, DiMSum; sequences stand for … in CUCUCU…GGAGGGAAAAGUUAUCAGGCAUGCACCUGGUAGCUAGUCUUUAAACCAAUAGAUUGCAUCGGUUUAAAAGGCAAGACCGUCAAAUUGCGGGAAAGGGGUCAACAGCCGUUCAGUACCAAGUCUCAGGGGAAACUUUGAGAUGGCCUUGCAAAGGGUAUGGUAAUAAGCUGACGGACAUGGUCCUAACCACGCAGCCAAGUCCUAAGUCAACAGAUCUUCUGUUGAUAUGGAUGCAGUUCACAGACUAAAUGUCGGUCGGGGAAGAUGUAUUCUUCUCAUAAGAUAUAGUCGGACCUCUCCUUAAUGGGAGCUAGCGGAUGAAGUGAUGCAACACUGGAGCCGCUGGGAACUAAUUUGUAUGCGAAAGUAUAUUGAUUAGUUUUGGAGUACUCGUGGUCG
How it was run: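 A randomised library covering all eight P1ex-region intron nucleotides was built with the intron in the knt kanamycin-resistance gene on pET-22b(+) and held in E. coli BL21(DE3). Cells were grown overnight at 37°C or 30°C on LB agar, with or without 25 μg/mL kanamycin, plus 100 μg/mL carbenicillin, 50 μM IPTG and 0.2% rhamnose, and pooled colonies were amplicon-sequenced on an Illumina HiSeq 2500. DiMSum fitness is the error-weighted combination of wild-type-normalised replicate fold changes, kanamycin versus none.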

Sequence | self-splicing fitness (ln) (30 °C) | self-splicing fitness (ln) (37 °C)
AAGAAGCAAUAUUACGCCAC | -3.5 ± 0.52 | –
CUGGAGCAAUAUUACGUCCA | -1.62 ± 0.53 | –
CUUGAGCAAUAUUACGAUAC | – | -4.58 ± 1
CCGAAGCAAUAUUACGGGCA | -4.65 ± 1 | –
ACCCAGCAAUAUUACGCUCA | -0.397 ± 0.065 | -0.324 ± 0.087
GGCUAGCAAUAUUACGUAGU | -3.29 ± 0.17 | -2.04 ± 0.2
UAGCAGCAAUAUUACGAAAC | -2.06 ± 0.66 | –
GGAAAGCAAUAUUACGUUCC | -2.04 ± 0.57 | -1.85 ± 0.81
GAACAGCAAUAUUACGGUCG | -1.17 ± 0.069 | -0.372 ± 0.098
AACGAGCAAUAUUACGUCUU | -1.33 ± 0.074 | -0.279 ± 0.093
CCUUAGCAAUAUUACGCACU | -2.46 ± 0.41 | -1.29 ± 0.22
CUGUAGCAAUAUUACGAUGC | – | -4.49 ± 0.51
CCGGAGCAAUAUUACGCUAG | -3.07 ± 0.21 | -2.33 ± 0.26
AUGGAGCAAUAUUACGGUAC | -4.49 ± 1 | -1.79 ± 0.58
ACGGAGCAAUAUUACGUACG | – | -1.1 ± 0.73
CAAGAGCAAUAUUACGUAGC | -4.03 ± 0.73 | –
AUGGAGCAAUAUUACGAUCA | -3.31 ± 0.54 | –
ACGAAGCAAUAUUACGAUUC | -4.44 ± 0.51 | –
CUAGAGCAAUAUUACGUCGC | -4.29 ± 0.73 | -2.89 ± 0.61
UGUAAGCAAUAUUACGUCUC | -3.85 ± 0.61 | –
ACGGAGCAAUAUUACGUGCU | – | -3.77 ± 0.73
GUCGAGCAAUAUUACGGCUC | -3.67 ± 0.73 | -2.34 ± 0.66
UUGGAGCAAUAUUACGCGGA | -2.79 ± 1.2 | –
UUCGAGCAAUAUUACGGGCU | -5.9 ± 1 | –

Part of the list above, as comma-separated lines.
Sequence,self-splicing fitness (ln) (30 °C),self-splicing fitness (ln) (37 °C)
AAGAAGCAAUAUUACGCCAC,-3.5 ± 0.52,–
CUGGAGCAAUAUUACGUCCA,-1.62 ± 0.53,–
CCGAAGCAAUAUUACGGGCA,-4.65 ± 1,–
ACCCAGCAAUAUUACGCUCA,-0.397 ± 0.065,-0.324 ± 0.087
GGCUAGCAAUAUUACGUAGU,-3.29 ± 0.17,-2.04 ± 0.2
AACGAGCAAUAUUACGUCUU,-1.33 ± 0.074,-0.279 ± 0.093
CCUUAGCAAUAUUACGCACU,-2.46 ± 0.41,-1.29 ± 0.22
CCGGAGCAAUAUUACGCUAG,-3.07 ± 0.21,-2.33 ± 0.26
ACGGAGCAAUAUUACGUACG,–,-1.1 ± 0.73
ACGAAGCAAUAUUACGAUUC,-4.44 ± 0.51,–
UGUAAGCAAUAUUACGUCUC,-3.85 ± 0.61,–
ACGGAGCAAUAUUACGUGCU,–,-3.77 ± 0.73
GUCGAGCAAUAUUACGGCUC,-3.67 ± 0.73,-2.34 ± 0.66
UUGGAGCAAUAUUACGCGGA,-2.79 ± 1.2,–

The listing continues.

Sequence | self-splicing fitness (ln) (30 °C) | self-splicing fitness (ln) (37 °C)
GUAGAGCAAUAUUACGCCAG | -2.44 ± 1.1 | –
GACGAGCAAUAUUACGUCAC | -3.96 ± 1 | -2.12 ± 0.58
UCGGAGCAAUAUUACGAUCA | -2.61 ± 0.53 | –
GAUUAGCAAUAUUACGCAGC | – | -1.28 ± 0.55
GAUUAGCAAUAUUACGCUCC | -2.16 ± 0.54 | –
GGGGAGCAAUAUUACGGCUC | -3.4 ± 1.1 | –
CGUUAGCAAUAUUACGCGCG | -1.97 ± 1.2 | -1.09 ± 0.92
CUUUAGCAAUAUUACGAGAU | -3.83 ± 0.23 | -2.57 ± 0.22
CGACAGCAAUAUUACGCGAG | -1.5 ± 0.16 | -2.32 ± 0.21
CACCAGCAAUAUUACGUUAA | -3.35 ± 0.095 | -2.37 ± 0.11
CGAGAGCAAUAUUACGUCCU | – | -2.01 ± 0.84
GUUGAGCAAUAUUACGCGAC | – | -2.64 ± 1.1
UUGGAGCAAUAUUACGUGCA | -4.66 ± 0.72 | –
GCGUAGCAAUAUUACGUCUC | -3.35 ± 0.73 | –
UUCGAGCAAUAUUACGACUC | -3.26 ± 1 | -1.29 ± 1.2
CCGAAGCAAUAUUACGACGA | -1.44 ± 0.12 | -0.711 ± 0.13
AUGGAGCAAUAUUACGCUAG | -4.57 ± 0.51 | –
AUUCAGCAAUAUUACGGGCG | -0.695 ± 0.1 | -0.0814 ± 0.12
GUUAAGCAAUAUUACGCAGC | -4.71 ± 0.51 | -2.59 ± 0.54
AAACAGCAAUAUUACGUGCC | -2 ± 0.1 | -1.31 ± 0.13
UAUGAGCAAUAUUACGGGAC | -6.35 ± 1 | –
UUAGAGCAAUAUUACGACAC | -0.135 ± 1.2 | -0.693 ± 1.4
UAGUAGCAAUAUUACGCCUC | -3.9 ± 0.74 | –
